# Results are given in words; binding and its absence hold for the method and conditions named. Binding seen in cells or lysates may run through a third protein. Some results given as binding are weak or reduced against the parent protein; the word gives no strength.
# Amino acid sequences for entries named in this document (tags omitted). Residues count along the entry.
# UniProt P09803, residues 157-884: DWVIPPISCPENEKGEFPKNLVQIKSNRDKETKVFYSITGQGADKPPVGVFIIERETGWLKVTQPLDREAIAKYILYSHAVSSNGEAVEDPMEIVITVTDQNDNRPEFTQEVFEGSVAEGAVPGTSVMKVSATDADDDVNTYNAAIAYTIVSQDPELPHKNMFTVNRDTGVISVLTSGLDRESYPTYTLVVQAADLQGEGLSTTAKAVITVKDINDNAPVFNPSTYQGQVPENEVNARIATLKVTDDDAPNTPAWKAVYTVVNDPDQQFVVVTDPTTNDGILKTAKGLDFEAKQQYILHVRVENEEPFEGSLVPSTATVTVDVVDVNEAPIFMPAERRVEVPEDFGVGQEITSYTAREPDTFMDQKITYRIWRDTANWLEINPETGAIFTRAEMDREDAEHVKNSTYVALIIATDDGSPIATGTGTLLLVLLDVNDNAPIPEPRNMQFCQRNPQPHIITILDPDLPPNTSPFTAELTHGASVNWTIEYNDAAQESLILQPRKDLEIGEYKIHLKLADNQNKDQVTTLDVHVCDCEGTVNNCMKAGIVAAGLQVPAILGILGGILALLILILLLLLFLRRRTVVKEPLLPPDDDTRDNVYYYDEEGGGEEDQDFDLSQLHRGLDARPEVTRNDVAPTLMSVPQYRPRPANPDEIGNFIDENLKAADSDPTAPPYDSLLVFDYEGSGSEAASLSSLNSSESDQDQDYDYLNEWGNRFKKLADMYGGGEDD
# UniProt P26231: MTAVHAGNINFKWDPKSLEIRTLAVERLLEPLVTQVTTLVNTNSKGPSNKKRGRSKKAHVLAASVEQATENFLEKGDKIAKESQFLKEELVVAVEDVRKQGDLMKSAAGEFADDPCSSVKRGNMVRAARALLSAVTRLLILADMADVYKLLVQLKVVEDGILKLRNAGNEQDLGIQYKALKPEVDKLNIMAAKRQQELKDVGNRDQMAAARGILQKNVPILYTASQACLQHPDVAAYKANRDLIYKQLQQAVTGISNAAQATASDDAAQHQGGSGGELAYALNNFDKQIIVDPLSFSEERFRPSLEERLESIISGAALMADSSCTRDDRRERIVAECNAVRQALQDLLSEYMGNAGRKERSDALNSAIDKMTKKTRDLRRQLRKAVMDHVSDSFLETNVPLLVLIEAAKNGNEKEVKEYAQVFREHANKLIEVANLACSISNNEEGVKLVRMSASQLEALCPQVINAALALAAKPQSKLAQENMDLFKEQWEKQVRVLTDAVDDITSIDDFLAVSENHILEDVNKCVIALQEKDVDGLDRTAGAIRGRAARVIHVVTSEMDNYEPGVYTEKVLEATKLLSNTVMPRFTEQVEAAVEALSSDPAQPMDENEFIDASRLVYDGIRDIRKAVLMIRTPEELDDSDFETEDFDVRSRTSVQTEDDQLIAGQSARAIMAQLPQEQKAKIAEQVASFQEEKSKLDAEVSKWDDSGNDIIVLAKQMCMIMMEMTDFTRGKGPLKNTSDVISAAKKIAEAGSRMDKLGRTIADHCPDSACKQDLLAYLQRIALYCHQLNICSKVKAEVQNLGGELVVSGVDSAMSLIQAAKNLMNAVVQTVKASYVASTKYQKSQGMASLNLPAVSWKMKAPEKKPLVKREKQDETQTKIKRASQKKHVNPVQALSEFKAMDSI
# UniProt Q02248: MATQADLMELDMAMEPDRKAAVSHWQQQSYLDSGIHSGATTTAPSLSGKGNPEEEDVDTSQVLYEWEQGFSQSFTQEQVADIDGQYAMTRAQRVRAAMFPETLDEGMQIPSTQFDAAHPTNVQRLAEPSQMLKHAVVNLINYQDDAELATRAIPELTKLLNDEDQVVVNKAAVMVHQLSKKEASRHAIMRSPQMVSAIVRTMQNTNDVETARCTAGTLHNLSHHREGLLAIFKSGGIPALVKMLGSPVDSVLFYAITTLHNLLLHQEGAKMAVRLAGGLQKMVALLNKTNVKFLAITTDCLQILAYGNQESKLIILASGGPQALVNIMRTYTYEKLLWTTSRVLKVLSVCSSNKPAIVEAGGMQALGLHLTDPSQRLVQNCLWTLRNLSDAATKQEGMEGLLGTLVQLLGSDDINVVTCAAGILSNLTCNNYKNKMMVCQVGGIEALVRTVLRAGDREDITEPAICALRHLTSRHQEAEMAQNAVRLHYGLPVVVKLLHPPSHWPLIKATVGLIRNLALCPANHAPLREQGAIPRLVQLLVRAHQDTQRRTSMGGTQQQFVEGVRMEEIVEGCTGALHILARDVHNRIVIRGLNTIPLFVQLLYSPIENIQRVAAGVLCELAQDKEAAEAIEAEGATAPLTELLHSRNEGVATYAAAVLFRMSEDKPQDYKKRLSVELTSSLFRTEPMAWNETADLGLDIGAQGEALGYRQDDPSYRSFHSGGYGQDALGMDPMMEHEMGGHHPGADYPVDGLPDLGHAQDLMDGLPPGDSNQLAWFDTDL
# UniProt Q9JKF1: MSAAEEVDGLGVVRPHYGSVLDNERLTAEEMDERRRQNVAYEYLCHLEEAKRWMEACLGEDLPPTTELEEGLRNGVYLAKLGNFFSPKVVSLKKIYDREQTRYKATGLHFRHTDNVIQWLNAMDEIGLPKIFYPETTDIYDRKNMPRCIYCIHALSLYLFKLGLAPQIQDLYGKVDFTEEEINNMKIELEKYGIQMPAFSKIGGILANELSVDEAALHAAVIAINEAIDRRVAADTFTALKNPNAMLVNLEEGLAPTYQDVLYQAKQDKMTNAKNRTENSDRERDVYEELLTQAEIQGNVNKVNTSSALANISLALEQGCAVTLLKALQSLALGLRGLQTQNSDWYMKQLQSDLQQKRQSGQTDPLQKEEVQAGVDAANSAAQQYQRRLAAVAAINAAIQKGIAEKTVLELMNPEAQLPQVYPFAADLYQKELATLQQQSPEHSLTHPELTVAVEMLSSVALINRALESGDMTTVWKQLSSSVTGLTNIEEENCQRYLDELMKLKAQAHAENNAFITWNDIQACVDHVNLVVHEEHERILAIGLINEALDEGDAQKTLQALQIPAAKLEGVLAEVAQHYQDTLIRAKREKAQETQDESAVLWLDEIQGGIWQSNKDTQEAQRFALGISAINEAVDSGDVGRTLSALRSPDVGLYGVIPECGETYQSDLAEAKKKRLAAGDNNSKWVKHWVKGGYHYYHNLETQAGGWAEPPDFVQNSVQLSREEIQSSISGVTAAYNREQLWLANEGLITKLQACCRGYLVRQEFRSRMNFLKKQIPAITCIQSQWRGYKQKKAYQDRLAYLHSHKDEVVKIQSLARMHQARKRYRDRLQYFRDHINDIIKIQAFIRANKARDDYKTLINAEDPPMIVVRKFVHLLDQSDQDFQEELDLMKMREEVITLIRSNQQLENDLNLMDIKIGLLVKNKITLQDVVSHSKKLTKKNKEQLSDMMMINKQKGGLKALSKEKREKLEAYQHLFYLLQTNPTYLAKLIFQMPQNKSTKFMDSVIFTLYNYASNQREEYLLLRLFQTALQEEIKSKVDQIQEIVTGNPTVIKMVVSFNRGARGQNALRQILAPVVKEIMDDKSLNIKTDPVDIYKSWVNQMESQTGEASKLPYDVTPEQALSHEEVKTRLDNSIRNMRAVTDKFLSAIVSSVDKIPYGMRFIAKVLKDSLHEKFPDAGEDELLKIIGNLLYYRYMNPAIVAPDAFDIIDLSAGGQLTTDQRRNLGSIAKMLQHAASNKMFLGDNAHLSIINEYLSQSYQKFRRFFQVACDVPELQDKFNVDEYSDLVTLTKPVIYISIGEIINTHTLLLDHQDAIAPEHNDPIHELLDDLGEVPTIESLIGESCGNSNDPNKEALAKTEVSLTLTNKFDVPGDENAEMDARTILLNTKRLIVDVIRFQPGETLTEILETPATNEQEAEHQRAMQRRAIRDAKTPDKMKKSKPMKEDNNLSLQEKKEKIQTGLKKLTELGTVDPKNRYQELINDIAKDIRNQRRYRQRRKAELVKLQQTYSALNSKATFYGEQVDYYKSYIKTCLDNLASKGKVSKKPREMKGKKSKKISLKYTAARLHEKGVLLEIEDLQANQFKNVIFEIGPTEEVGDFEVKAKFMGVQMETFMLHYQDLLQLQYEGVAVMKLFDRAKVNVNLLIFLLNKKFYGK
# UniProt A2AQ25: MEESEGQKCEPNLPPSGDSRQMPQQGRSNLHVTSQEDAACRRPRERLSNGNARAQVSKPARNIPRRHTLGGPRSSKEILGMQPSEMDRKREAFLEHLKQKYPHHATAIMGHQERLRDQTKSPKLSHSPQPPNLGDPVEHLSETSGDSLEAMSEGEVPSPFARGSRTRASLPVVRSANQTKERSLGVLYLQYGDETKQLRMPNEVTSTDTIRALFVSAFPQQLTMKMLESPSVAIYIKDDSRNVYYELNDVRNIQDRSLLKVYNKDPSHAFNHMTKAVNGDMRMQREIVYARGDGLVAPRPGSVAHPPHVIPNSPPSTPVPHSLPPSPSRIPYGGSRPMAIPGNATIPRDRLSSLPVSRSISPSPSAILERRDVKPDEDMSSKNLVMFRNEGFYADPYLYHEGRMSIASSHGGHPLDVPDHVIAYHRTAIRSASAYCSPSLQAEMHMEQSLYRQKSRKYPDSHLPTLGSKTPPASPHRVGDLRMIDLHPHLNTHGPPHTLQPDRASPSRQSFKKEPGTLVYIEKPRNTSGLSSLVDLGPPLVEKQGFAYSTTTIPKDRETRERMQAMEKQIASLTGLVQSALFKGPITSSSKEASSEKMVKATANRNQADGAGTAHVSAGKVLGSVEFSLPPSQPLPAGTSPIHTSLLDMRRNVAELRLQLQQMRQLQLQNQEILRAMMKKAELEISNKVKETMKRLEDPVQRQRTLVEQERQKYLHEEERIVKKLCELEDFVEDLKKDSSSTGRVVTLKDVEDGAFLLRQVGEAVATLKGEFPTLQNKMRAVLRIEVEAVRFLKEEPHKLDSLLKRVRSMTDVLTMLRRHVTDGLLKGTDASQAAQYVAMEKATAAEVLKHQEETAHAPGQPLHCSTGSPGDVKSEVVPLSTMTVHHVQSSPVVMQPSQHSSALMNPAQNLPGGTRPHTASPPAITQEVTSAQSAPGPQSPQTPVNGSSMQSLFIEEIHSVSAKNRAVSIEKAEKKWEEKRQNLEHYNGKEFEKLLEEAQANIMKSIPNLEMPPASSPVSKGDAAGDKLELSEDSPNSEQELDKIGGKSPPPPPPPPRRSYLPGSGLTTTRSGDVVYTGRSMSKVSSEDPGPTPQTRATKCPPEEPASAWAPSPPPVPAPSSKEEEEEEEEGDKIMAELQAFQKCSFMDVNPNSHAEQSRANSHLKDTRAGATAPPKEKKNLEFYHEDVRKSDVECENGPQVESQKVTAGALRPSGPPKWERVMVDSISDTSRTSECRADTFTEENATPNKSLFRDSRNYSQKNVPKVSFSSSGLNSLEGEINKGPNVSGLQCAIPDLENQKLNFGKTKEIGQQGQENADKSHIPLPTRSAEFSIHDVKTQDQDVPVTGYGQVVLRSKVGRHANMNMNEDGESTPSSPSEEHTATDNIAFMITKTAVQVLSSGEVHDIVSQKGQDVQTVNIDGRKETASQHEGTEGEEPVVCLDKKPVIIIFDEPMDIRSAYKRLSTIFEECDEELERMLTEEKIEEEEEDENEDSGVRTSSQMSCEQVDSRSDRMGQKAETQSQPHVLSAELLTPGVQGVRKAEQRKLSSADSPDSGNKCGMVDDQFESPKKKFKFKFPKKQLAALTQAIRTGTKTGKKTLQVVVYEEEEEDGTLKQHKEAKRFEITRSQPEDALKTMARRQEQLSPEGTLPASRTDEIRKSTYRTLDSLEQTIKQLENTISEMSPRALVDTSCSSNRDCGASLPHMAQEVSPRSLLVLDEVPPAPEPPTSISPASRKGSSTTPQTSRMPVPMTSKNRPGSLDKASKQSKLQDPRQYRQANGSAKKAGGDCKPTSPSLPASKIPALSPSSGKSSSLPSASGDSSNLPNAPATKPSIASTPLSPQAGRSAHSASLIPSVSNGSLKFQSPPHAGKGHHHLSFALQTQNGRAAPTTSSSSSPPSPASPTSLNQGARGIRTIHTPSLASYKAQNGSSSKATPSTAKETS
# T1: p140Cap adaptor protein (UniProt Q9QWI6)
# T1 sequence: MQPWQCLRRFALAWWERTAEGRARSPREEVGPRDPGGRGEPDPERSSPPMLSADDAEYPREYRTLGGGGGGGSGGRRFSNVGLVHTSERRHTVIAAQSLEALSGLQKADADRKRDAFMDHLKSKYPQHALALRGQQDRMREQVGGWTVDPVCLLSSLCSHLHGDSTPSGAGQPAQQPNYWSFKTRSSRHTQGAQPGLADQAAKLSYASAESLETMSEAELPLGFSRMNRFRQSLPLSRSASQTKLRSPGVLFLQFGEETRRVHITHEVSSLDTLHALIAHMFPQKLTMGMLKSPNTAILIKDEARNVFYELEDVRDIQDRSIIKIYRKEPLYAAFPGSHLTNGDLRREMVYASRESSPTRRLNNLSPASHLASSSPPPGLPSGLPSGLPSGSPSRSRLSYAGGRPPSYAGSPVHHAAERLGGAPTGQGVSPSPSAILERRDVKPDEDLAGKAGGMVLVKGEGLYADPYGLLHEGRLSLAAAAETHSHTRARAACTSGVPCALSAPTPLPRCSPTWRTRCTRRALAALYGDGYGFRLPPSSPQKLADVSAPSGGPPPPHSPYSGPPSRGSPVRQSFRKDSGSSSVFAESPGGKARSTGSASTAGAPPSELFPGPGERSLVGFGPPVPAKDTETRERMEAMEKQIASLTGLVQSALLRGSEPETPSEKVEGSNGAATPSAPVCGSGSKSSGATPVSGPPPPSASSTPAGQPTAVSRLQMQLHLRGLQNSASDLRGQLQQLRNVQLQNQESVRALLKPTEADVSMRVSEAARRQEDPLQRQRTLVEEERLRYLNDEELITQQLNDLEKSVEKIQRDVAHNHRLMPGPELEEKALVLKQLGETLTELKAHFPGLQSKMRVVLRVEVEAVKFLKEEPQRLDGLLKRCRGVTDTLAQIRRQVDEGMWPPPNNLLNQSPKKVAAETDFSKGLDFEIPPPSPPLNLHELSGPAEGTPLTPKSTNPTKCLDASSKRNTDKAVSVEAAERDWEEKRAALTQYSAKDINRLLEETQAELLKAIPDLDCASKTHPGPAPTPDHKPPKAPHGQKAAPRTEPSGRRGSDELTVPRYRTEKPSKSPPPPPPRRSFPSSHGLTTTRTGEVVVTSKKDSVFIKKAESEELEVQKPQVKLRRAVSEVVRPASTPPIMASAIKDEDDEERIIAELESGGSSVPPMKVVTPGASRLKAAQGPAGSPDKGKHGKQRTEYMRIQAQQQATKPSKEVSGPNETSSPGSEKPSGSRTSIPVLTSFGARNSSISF
# B1: p140Cap adaptor protein (protein, UniProt Q9QWI6 1-1250)
# chain: T1 sequence
# B2: Catenin delta-1 (protein, UniProt P30999 1-938)
# chain: MDDSEVESTASILASVKEQEAQFEKLTRALEEERRHVSAQLERVRVSPQDANSLMANGTLTRRHQNGRFVGDADLERQKFSDLKLNGPQDHNHLLYSTIPRMQEPGQIVETYTEEDPEGAMSVVSVETTDDGTTRRTETTVKKVVKTMTTRTVQPVPMGPDGLPVDASAVSNNYIQTLGRDFRKNGNGGPGPYVGQAGTATLPRNFHYPPDGYGRHYEDGYPGGSDNYGSLSRVTRIEERYRPSMEGYRAPSRQDVYGPQPQVRVGGSSVDLHRFHPEPYGLEDDQRSMGYDDLDYGMMSDYGTARRTGTPSDPRRRLRSYEDMIGEEVPPDQYYWAPLAQHERGSLASLDSLRKGMPPPSNWRQPELPEVIAMLGFRLDAVKSNAAAYLQHLCYRNDKVKTDVRKLKGIPILVGLLDHPKKEVHLGACGALKNISFGRDQDNKIAIKNCDGVPALVRLLRKARDMDLTEVITGTLWNLSSHDSIKMEIVDHALHALTDEVIIPHSGWEREPNEDCKPRHIEWESVLTNTAGCLRNVSSERSEARRKLRECDGLVDALIFIVQAEIGQKDSDSKLVENCVCLLRNLSYQVHREIPQAERYQEALPTVANSTGPHAASCFGAKKGKDEWFSRGKKPTEDPANDTVDFPKRTSPARGYELLFQPEVVRIYISLLKESKTPAILEASAGAIQNLCAGRWTYGRYIRSALRQEKALSAIAELLTSEHERVVKAASGALRNLAVDARNKELIGKHAIPNLVKNLPGGQQNSSWNFSEDTVVSILNTINEVIAENLEAAKKLRETQGIEKLVLINKSGNRSEKEVRAAALVLQTIWGYKELRKPLEKEGWKKSDFQVNLNNASRSQSSHSYDDSTLPLIDRNQKSDKKPDREEIPMSNMGSNTKSLDNNYSTLNERGDHNRTLDRSGDLGDMEPLKGAPLMQKI
# B3: Tectonin beta-propeller repeat-containing protein 1 (protein, UniProt Q80VP0 1-1166)
# chain: MPTSVLWAVDLFGRVYTLSTAGQYWELCKDVQLEFKRVSAATQCCWGIAGDNQVYLYVCSSDVPIRHREEAYENQRWNPMGGFCEKLLPSDRWPWSDVSGLQHRPLDGVALPSPHWEWESDWYVDENFGGEPTEKGGWTYAMDFPATYTRDKKWNSCVRRRKWIRYRRYKSRDSWAKIPSKDDPKELPDPFNDLSVGGWEITEEPVGRLSVWAVSLQGKVWYREDVSHPNPEGSSWSLVETPGEVVQISCGPHDLIWATLWEGQALVREGVCRNNPKGSYWSMVEPPGSENGIMHVSAGVSVVWAITKDRKVWFRRGVNSHNPCGTSWIEMVGEMTMVNVGLNDQVWGISCEDRAVYFRQGVTPSELSGKTWKAIVVGRESDRSHSGSSSSLLSAGCFFGDEVRGSGTESAPSDTDASLEVERQGPEQPLPKEALDNSTNLKGSLSKGHETSGNTDHSTENACLTEGKEKAPETSRSDECRGPASTPAELPWTNIDLKEPKKVSNQPAAGFPETAGLSSLGLFPMGMEEPYGADDHPLWAWVSGGACAVEAGSTLKWFTIQSGLSPSVQTLSLSITPAQTAAWRKQIFQQLTERTKRELESFRHYEQAVEQSVWVKTGALQWWCDWKPHKWVDVRVALEQFTGHDGARDSILFIYYVVHEEKKYLHVFLNEVTVLVPVLNEAKHSFALYTPERTRQRWPVRLAAATEQDMNDWLALLSLSCCESRKVHGRPSPQAIWSVTCKGDIFVSEPSPDLEARERLLPCDQMFWRQMGGHLRIIEANSRGVVWGIGYDHTAWVYTGGYGGGCFQGLASSTSNIYTQSDVKSVYIYENQRWNPVTGYTSRGLPTDRFMWSDVTGLQECTKAGTKPPSLQWTWVSDWYVDFSVPGGTDQEGWQYASDFPASYHGYKTMKDFVRRRCWARKCKLVTSGPWLEVAPITLSDVSIIPESAHADGRGHNVALWAVSDKGDVLCRLGVSELNPAGSSWLHVGTDQPFASVSIGACYQVWAVARDGSAFYRGSVSPSQPAGDCWYHIPSPPKQKLTQVSVGQTSVYALDENGNLWYRAGITPSYPQGSSWEHVSNNVRKVSVGPLDQVWVIANKVQGSHGLSRGTVCRRMGVQPREPKGQGWDYGIGGGWDHISVRANATRVPRNMSRDREARGPGPVCC
# Target: Cadherin-1 (mouse (endogenous in TUBO cells)) (UniProt P09803)
# Assay: co-IP; reverse: E-cadherin immunoprecipitated, Western blot for p140Cap
row,binding,Molecule
1,binds,B1

# Target: T1, p140Cap adaptor protein
# Assay: co-IP; p140Cap immunoprecipitates (p140Cap Mab on protein G Dynabeads) from p140 and mock TUBO cell extracts, Western blot with specific antibodies
row,binding,Molecule
1,binds,Cadherin-1 (from UniProt P09803 157-884)
2,binds,Catenin alpha-1 (from UniProt P26231 1-906)
3,binds,Catenin beta-1 (from UniProt Q02248 1-781)
4,binds,Ras GTPase-activating-like protein IQGap1 (from UniProt Q9JKF1 1-1657)
5,binds,Sickle tail protein (from UniProt A2AQ25 1-1946)
6,binds,B2
7,binds,B3
